Assay results published in patent US20250223353A1.
Results are given in words; binding and its absence hold for the method and conditions named. Some entries that bind do so weakly or less than the wild type. Where a sequence is shown, tags or fusion partners need not be part of it.

Target: T1, mouse PVRIG-Fc protein (mouse)
T1 sequence: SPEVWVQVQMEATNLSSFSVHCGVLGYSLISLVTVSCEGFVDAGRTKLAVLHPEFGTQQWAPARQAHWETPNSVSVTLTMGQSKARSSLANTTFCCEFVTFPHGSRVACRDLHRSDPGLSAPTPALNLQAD
Experiment: BLI (ForteBio)

B1: ADI-56249 (antibody, V domains shown)
VH: QVQLVQSGAEVKKPGSSVKVSCKASGGTFSTFAISWVRQAPGQGLEWMGDIIPIFGSNYAQKFQGRVTITADESTSTAYMELSSLRSEDTAVYYCARGPLEGKVSPFDIWGQGTMVTVSS
VL: DIVMTQSPLSLPVTPGEPASISCRSSQSLLHSTGYNYLDWYLQKPGQSPQLLIYVGSTRASGVPDRFSGSGSGTDFTLKISRVEAEDVGVYYCMQERQFPITFGGGTKVEIK
  binding: binds
